The other results are listed elsewhere or left out.
Legend:
Experiment in all cases: log2 fold change, soluble protein after heating vs DMSO (PISA); higher = thermal stabilisation; K562 cells, 10 uM, 30 min; active = over 0.2 and 3.5 SD of the protein, either way, in both replicates (recomputed)
[1] = compound: Cc1sc2c(c1C)C(c1ccc(Cl)cc1)=N[C@@H](CC(=O)OC(C)(C)C)c1nnc(C)n1-2
Method in brief: (§1)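 K562 cells (2×10^6 cells/mL) were treated with 10 μM compound for 30 min, and aliquots were heated for 3 min over 48°C-58°C. Pooled aliquots were extracted in PBS with 0.5% NP-40 at 4°C, and the supernatant after 21,000xg for 90 min was measured by TMTpro 16plex LC-MS/MS with channel sums equalised. Reported thermal stability, relative to control samples and from duplicates, is a log2 fold change.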

The chains behind the UniProt entries cited, without tags or fusion partners. Where a name states a change or a piece, a line headed by the entry shows the natural chain unless it says otherwise.
UniProt Q6ZS17: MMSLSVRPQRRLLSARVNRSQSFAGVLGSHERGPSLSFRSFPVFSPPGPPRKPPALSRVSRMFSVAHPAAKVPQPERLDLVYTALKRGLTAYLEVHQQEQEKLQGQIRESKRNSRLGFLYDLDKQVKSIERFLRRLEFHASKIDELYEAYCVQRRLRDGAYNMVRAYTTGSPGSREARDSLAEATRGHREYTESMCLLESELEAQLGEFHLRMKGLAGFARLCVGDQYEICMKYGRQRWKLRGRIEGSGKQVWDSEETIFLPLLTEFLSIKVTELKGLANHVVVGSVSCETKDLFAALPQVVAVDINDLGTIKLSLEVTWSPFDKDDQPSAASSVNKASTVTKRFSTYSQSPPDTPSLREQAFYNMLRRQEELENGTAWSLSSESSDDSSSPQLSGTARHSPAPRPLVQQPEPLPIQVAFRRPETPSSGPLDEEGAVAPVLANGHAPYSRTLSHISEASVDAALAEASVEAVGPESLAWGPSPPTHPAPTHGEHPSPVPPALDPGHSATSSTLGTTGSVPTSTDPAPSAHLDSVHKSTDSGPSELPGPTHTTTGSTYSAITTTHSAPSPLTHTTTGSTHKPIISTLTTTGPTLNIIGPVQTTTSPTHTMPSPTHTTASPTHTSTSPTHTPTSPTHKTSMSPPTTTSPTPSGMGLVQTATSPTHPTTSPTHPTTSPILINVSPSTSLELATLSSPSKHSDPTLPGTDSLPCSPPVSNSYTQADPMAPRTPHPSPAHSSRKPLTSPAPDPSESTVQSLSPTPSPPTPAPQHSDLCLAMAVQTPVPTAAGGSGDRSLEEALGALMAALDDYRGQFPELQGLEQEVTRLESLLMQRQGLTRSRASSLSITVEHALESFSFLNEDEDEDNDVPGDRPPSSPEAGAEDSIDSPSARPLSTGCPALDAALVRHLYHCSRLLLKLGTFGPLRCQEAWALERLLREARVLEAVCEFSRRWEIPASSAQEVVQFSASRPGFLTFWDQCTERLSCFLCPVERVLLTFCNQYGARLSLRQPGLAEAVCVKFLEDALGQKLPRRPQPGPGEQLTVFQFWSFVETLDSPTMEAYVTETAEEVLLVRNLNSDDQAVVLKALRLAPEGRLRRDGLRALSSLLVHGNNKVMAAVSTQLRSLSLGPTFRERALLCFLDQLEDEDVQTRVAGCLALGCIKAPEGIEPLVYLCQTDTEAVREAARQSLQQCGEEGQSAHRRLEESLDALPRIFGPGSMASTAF
UniProt Q9H1K0: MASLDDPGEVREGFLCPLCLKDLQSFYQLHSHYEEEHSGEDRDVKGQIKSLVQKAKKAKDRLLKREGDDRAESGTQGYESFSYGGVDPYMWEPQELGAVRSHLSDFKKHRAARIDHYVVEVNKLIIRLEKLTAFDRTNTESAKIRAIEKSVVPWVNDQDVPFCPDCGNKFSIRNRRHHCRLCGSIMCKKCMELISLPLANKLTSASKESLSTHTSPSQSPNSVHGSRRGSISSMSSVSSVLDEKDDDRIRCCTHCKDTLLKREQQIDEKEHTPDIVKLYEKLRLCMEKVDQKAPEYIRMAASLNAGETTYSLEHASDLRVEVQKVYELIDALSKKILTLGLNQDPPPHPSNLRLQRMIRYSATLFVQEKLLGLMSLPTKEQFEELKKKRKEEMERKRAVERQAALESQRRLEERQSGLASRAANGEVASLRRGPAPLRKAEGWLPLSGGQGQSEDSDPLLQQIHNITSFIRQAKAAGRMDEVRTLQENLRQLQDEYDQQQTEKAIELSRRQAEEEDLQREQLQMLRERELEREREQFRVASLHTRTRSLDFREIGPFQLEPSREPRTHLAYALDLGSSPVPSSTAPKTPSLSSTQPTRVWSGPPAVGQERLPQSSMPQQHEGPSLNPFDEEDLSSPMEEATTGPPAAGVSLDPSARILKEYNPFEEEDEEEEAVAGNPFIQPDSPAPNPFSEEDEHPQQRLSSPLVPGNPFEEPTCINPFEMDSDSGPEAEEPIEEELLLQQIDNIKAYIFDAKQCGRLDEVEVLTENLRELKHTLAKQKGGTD
UniProt Q14257: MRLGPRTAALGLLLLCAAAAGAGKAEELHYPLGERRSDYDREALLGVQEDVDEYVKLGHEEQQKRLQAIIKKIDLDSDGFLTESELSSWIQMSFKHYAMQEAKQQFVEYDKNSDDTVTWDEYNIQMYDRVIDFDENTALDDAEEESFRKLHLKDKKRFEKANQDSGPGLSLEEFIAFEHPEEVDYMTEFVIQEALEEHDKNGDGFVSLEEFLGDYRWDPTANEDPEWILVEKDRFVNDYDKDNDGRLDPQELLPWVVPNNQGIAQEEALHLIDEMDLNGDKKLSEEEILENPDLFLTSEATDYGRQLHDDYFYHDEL
UniProt Q5RL73: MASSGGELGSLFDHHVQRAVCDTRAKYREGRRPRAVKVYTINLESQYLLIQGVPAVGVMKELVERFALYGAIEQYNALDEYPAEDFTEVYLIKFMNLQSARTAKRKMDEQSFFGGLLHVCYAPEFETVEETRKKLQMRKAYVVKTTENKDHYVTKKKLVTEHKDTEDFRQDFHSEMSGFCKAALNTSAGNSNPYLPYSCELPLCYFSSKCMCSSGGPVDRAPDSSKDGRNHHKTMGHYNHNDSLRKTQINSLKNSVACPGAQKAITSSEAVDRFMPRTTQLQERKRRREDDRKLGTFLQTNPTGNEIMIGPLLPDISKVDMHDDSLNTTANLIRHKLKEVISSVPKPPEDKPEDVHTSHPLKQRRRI
UniProt Q86XS8: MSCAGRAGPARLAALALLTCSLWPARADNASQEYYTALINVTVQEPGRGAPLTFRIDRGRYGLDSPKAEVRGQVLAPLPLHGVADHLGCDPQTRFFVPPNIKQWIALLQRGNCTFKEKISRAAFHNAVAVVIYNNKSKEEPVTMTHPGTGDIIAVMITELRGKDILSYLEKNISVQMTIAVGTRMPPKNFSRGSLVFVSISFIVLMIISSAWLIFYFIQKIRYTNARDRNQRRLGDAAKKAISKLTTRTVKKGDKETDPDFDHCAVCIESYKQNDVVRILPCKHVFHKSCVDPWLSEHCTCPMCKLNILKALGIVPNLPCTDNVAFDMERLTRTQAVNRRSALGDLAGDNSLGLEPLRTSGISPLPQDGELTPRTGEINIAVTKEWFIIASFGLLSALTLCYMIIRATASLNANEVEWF
UniProt Q6NTF9: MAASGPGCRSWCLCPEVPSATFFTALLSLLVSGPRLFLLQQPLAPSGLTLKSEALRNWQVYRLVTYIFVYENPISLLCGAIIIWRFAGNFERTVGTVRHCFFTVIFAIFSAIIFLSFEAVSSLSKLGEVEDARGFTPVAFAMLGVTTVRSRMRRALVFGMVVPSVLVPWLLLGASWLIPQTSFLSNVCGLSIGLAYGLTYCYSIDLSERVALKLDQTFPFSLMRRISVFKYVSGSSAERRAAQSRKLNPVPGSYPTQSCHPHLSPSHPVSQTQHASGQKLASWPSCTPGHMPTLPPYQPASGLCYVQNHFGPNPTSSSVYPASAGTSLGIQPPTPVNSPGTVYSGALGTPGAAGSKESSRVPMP
UniProt P82980: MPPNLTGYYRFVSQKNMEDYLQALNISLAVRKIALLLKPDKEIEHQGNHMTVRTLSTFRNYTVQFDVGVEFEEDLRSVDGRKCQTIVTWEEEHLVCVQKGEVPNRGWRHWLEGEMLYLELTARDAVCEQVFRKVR
UniProt Q8WU17: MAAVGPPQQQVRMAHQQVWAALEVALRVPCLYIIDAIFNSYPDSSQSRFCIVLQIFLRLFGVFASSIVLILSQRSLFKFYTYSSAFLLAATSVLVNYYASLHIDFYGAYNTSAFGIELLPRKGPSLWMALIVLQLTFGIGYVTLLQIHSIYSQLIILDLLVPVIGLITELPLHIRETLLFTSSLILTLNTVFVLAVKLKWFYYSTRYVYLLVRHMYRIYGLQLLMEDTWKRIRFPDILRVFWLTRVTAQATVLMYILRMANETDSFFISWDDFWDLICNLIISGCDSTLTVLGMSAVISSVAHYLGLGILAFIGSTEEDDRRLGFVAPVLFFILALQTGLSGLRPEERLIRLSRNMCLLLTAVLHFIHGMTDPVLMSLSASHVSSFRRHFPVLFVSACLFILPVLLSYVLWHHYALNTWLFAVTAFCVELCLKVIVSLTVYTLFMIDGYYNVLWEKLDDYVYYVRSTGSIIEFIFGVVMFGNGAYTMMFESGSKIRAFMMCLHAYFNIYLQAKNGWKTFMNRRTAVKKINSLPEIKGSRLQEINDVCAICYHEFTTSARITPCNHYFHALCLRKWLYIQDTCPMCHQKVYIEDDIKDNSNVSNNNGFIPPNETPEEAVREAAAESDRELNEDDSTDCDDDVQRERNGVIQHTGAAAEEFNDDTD
UniProt Q6R327, whole entry, looked up: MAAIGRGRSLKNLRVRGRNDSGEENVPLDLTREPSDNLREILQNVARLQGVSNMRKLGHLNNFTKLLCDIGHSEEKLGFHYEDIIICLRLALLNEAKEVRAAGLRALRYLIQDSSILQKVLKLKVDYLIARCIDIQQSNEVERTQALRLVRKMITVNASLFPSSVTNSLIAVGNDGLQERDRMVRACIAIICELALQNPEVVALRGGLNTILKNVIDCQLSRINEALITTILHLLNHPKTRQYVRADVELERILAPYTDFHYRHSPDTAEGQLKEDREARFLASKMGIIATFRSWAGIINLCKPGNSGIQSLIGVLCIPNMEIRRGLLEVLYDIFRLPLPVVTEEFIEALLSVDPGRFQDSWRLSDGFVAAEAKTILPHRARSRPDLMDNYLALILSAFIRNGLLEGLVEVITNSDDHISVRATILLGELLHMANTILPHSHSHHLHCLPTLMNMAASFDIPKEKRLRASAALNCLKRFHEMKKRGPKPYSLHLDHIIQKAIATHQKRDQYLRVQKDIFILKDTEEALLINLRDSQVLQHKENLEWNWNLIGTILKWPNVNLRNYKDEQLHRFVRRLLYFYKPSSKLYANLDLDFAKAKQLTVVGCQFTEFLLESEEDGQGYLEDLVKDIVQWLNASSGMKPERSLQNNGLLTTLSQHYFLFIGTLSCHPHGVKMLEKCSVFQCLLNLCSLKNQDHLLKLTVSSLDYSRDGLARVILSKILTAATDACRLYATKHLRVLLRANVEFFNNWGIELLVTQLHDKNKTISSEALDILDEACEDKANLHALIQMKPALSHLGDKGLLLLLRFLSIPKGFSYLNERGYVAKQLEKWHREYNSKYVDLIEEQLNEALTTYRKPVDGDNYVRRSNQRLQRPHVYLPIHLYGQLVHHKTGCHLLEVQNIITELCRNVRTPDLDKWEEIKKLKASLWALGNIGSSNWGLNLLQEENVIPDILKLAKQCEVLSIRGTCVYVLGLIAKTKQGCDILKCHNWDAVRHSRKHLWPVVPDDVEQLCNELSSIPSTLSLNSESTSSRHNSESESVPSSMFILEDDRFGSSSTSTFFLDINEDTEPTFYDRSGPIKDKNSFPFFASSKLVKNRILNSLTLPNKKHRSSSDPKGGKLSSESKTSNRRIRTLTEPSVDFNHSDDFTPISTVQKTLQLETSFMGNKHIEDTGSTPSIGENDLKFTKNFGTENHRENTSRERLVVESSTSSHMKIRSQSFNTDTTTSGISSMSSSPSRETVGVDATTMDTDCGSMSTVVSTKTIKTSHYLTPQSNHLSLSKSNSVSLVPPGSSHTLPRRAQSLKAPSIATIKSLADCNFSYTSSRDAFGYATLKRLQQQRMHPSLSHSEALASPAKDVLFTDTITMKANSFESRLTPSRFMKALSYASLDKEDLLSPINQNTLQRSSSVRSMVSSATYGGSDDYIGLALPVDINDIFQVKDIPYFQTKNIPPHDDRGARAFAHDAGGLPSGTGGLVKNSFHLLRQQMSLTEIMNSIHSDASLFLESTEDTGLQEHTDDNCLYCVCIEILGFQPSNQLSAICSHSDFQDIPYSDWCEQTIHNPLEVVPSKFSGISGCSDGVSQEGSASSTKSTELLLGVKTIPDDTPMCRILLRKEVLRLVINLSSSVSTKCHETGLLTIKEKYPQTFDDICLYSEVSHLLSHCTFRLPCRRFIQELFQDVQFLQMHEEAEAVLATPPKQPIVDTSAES
UniProt Q8NDN9: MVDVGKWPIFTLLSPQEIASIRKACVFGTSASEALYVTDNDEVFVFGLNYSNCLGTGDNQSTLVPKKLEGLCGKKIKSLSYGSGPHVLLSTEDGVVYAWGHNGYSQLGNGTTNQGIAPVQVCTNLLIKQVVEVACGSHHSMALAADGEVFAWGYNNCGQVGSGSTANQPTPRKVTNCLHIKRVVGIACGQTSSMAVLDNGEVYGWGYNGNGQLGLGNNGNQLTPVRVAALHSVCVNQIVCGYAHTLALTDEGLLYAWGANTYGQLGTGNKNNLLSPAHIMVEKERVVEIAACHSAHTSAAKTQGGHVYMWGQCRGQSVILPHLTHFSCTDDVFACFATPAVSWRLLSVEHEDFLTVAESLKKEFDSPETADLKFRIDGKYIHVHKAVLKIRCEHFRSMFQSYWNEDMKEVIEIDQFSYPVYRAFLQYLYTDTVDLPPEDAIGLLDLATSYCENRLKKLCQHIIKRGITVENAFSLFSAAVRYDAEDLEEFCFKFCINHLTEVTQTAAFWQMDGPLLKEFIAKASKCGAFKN

[2] = compound: C1=CC=C(C=C1)[C@H](COC2=CC3=C(C=C2)NC(=O)N3)NC(=O)C4=CC=CN(C4=O)CC5=CC(=C(C=C5)F)F
Method in brief: as §1

[3] = compound: CC1=C2C(=CC=C1)N=C(N(C2=O)C3=CC=CC=C3C)CN4C=NC5=C(N=CN=C54)N
Method in brief: as §1

[4] = compound: CC1=C(SC2=C1C(=N[C@H](C3=NN=C(N32)C)CC(=O)N)C4=CC=C(C=C4)Cl)C
Method in brief: as §1

[5] = compound: c1ccc([C@@H]2C[C@H]2NC2CCNCC2)cc1
Method in brief: as §1

| Target | log2 fold change [1] | log2 fold change [2] | log2 fold change [3] | log2 fold change [4] | log2 fold change [5] |
| --- | --- | --- | --- | --- | --- |
| RIPOR1 isoform 4 (UniProt Q6ZS17) | inactive: 0.288 |  |  |  |  |
| RBSN (UniProt Q9H1K0) | inactive: -0.031 | inactive: 0.05 | inactive: 0.171 |  |  |
| RFWD3 (UniProt Q6PCD5) |  |  | inactive: 0.197 | inactive: 0.028 | inactive: 0.091 |
| RNF141 (UniProt Q8WVD5) | inactive: 0.055 | inactive: 0.055 | inactive: -0.093 |  |  |
| RCN2 isoform 2 (UniProt Q14257) | inactive: 0.009 | inactive: -0.059 | inactive: -0.004 | inactive: 0.014 | inactive: 0.003 |
| RBM48 isoform 2 (UniProt Q5RL73) | inactive: -0.36 | inactive: 0.008 |  | inactive: 0.058 | inactive: 0.113 |
| RIC1 (UniProt Q4ADV7) |  | inactive: -0.006 | inactive: -0.024 |  |  |
| RFC1 (UniProt P35251) | inactive: 0.123 |  | inactive: 0.051 | inactive: -0.294 | inactive: -0.183 |
| RLIM (UniProt Q9NVW2) | inactive: -0.215 |  | inactive: 0.145 | inactive: 0.436 | inactive: -0.389 |
| RC3H1 (UniProt Q5TC82) | inactive: 0.101 |  | inactive: -0.06 | inactive: -0.199 | inactive: -0.187 |
| RNF130 (UniProt Q86XS8) |  | inactive: 0.042 |  | inactive: 0.092 | inactive: 0.01 |
| RGN (UniProt Q15493) | inactive: -0.119 |  | inactive: 0.036 |  |  |
| RHBDD2 isoform 2 (UniProt Q6NTF9) |  | inactive: -0.133 |  | inactive: -0.009 | inactive: 0.005 |
| RBP5 (UniProt P82980) | inactive: 0.051 | inactive: -0.028 |  | inactive: 0.068 | inactive: 0.029 |
| RNF139 (UniProt Q8WU17) | inactive: -0.262 | inactive: -0.071 | inactive: 0.069 |  |  |
| REX1BD (UniProt Q96EN9) |  |  |  | inactive: 0.01 | inactive: -0.264 |
| RC3H2 (UniProt Q9HBD1) | inactive: 0.085 |  |  |  |  |
| RBM6 (UniProt P78332) | inactive: 0.012 |  |  | inactive: -0.075 | inactive: 0.076 |
| RNF169 (UniProt Q8NCN4) | inactive: -0.14 |  |  | inactive: -0.068 | inactive: -0.019 |
| RICTOR isoform 3 (UniProt Q6R327) | inactive: 0.043 |  |  |  |  |
| RHD (UniProt Q02161) | inactive: 0.014 |  |  | inactive: -0.023 | inactive: 0.134 |
| RMDN2 isoform 2 (UniProt Q96LZ7) |  |  | inactive: 0.164 |  |  |
| RBM7 (UniProt Q9Y580) | inactive: -0.029 |  | inactive: 0.015 | inactive: -0.117 | inactive: -0.06 |
| RCBTB1 (UniProt Q8NDN9) |  | inactive: 0.037 |  | inactive: -0.067 | inactive: 0.492 |

Copied from the list:
RNF141 (UniProt Q8WVD5) | log2 fold change [1]: inactive: 0.055
RNF169 (UniProt Q8NCN4) | log2 fold change [5]: inactive: -0.019
